Laboratory results taken from article PMC2955532.
Results are given in words; binding and its absence hold for the method and conditions named. Binding seen in cells or lysates may run through a third protein. Some results given as binding are weak or reduced against the parent protein; the word gives no strength.

Amino acid sequences for entries named in this document (tags omitted). Residues count along the entry.
UniProt P05362, residues 28-532: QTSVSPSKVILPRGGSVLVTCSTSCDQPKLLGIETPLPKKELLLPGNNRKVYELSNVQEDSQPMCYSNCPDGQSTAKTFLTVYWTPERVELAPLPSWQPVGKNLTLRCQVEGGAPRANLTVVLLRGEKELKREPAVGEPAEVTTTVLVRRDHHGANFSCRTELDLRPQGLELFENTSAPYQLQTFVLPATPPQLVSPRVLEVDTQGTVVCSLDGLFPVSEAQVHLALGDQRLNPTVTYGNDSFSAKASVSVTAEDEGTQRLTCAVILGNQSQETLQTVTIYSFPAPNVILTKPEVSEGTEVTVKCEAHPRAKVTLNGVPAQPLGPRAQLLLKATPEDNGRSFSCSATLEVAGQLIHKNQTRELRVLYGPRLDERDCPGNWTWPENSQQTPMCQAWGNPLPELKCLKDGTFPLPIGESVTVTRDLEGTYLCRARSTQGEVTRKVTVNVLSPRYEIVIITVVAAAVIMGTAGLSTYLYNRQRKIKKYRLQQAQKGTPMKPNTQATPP
UniProt P21926: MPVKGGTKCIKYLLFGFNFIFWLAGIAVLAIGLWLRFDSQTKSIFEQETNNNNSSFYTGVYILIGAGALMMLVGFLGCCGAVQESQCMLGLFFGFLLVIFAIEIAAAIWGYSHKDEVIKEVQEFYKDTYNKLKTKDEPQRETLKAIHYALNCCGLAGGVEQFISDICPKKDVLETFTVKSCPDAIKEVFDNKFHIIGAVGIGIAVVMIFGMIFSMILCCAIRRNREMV
UniProt P05106, residues 27-788: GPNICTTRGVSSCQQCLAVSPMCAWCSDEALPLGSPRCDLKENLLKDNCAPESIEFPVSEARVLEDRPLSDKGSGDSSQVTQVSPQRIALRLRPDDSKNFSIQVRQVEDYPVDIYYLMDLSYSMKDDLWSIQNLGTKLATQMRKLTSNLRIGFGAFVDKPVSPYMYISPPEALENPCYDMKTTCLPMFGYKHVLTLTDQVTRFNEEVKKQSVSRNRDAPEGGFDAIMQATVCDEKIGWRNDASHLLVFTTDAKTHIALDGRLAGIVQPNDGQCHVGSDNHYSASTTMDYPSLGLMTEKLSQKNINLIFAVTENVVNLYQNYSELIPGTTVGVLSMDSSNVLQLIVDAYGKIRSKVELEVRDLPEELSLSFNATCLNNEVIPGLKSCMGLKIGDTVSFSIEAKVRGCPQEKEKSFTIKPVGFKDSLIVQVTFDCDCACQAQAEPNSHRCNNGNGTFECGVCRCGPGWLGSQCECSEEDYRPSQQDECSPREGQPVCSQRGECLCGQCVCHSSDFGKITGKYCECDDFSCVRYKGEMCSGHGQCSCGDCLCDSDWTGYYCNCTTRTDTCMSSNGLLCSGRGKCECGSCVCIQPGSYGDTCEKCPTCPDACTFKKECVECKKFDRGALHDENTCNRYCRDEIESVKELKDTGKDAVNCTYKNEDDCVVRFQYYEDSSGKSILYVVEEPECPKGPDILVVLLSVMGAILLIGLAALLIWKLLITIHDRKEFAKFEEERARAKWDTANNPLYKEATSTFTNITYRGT

How the values were obtained:
Test in all cases: co-IP; confluent primary EEC monolayers lysed in Tris-buffered saline with 1% Brij 96, 1 mM CaCl2, 1 mM MgCl2 and protease inhibitors; 5 µg antibody coupled to protein-G-Sepharose; six washes with lysis buffer; non-reducing SDS-PAGE and Western blot; non-immune Ig as negative control
[1] = molecular target: ICAM-1 (human (endogenous in primary EEC)) (UniProt P05362)
[2] = molecular target: tetraspanin CD9 (human (endogenous in primary EEC)) (UniProt P21926)
[3] = molecular target: β3 integrin (human (endogenous in primary EEC)) (UniProt P05106)

Row | binding [1] | binding [2] | binding [3] | Substance
1 | no binding | binds | binds weakly | CD98 heavy chain (from UniProt P08195 1-529)
2 | binds |  |  | tetraspanin CD9 (from UniProt P21926 1-228)
